Results as given in publication doi:10.1101/598128 (bioRxiv, 2019).
Results are given in words; binding and its absence hold for the method and conditions named. For some of these results: Binding seen in cells or lysates may run through a third protein. Some binding calls cover weakened binding; strength is not graded here. For some of these results: Sequences can lack the tags named with a protein.

T1: His-Orc1 (subunit of the purified His-ORC complex) (budding yeast) (UniProt P54784)
T1 sequence: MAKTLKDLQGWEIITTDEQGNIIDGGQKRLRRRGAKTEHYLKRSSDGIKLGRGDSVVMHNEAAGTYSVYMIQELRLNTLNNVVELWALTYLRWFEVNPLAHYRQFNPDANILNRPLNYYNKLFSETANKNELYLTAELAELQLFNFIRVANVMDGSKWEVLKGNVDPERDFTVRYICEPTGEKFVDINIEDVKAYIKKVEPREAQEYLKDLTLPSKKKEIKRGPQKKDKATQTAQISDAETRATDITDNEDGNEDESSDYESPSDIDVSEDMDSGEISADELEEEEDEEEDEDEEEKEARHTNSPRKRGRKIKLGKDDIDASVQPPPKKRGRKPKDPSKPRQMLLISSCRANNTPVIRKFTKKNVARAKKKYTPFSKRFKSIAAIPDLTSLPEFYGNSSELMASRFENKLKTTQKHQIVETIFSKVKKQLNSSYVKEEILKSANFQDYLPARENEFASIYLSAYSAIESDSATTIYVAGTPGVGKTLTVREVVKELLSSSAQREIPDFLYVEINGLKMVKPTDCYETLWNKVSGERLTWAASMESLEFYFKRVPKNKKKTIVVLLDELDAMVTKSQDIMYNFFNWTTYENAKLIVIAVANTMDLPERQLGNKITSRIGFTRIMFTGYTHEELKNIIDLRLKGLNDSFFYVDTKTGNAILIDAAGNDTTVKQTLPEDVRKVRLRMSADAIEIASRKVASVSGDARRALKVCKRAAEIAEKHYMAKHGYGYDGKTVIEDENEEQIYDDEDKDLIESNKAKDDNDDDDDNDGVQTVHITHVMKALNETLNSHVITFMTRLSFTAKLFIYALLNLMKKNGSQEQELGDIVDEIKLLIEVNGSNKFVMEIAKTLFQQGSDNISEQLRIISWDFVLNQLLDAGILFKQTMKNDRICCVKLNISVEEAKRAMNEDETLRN

T2: Orc3 (subunit of the purified His-ORC complex) (budding yeast) (UniProt P54790)
T2 sequence: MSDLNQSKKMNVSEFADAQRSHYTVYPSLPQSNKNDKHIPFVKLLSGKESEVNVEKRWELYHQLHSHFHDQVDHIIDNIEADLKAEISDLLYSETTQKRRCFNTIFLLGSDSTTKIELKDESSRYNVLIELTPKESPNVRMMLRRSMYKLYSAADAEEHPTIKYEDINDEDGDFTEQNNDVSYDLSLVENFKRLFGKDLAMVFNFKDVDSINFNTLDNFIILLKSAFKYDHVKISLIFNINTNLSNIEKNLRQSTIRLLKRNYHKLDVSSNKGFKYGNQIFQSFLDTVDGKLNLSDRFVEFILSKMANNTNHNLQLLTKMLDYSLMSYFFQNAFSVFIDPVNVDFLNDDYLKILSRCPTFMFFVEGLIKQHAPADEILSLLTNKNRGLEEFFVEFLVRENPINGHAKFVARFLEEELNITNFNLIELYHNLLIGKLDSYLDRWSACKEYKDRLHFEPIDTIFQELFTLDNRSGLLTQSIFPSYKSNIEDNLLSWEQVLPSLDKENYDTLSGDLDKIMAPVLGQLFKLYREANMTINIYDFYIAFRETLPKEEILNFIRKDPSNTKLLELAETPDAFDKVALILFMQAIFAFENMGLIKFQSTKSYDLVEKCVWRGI

T3: Orc1-TAP (budding yeast) (UniProt P54784)
T3 sequence: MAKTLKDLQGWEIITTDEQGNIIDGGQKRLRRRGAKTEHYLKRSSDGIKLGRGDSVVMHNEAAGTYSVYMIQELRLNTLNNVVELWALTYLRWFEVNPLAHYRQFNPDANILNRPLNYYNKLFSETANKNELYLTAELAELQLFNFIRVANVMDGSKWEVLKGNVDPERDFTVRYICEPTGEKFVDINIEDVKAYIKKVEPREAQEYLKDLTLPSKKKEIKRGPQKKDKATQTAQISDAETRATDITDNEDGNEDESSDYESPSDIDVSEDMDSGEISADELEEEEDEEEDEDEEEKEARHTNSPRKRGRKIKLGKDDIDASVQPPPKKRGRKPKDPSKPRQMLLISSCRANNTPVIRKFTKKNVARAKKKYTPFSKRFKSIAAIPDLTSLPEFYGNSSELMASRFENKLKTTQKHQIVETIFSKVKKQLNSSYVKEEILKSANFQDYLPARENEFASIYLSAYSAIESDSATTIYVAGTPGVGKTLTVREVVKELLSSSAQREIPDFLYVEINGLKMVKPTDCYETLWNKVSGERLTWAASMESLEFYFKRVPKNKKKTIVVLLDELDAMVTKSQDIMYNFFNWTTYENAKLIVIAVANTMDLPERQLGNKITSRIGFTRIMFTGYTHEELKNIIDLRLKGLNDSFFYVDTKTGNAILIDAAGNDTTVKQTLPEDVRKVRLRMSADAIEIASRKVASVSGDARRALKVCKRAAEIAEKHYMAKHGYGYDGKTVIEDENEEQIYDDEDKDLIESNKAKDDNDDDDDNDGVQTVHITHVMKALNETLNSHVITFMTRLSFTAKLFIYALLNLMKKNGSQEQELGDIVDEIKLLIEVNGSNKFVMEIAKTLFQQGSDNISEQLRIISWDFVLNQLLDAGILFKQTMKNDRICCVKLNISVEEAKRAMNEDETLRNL

T4: Orc5-TAP (budding yeast) (UniProt P50874)
T4 sequence: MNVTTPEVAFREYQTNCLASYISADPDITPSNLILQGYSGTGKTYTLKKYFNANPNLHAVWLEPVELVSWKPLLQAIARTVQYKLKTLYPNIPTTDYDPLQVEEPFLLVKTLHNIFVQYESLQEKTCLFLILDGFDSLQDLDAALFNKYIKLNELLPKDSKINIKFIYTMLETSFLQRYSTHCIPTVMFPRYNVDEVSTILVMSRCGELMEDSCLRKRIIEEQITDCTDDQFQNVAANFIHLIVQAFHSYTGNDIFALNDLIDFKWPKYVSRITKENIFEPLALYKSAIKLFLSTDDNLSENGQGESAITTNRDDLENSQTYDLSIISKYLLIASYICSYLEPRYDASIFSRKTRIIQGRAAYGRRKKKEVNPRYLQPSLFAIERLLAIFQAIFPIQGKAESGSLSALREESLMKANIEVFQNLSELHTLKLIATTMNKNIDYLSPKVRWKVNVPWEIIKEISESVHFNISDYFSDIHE

T5: Orc2-TAP (budding yeast) (UniProt P32833)
T5 sequence: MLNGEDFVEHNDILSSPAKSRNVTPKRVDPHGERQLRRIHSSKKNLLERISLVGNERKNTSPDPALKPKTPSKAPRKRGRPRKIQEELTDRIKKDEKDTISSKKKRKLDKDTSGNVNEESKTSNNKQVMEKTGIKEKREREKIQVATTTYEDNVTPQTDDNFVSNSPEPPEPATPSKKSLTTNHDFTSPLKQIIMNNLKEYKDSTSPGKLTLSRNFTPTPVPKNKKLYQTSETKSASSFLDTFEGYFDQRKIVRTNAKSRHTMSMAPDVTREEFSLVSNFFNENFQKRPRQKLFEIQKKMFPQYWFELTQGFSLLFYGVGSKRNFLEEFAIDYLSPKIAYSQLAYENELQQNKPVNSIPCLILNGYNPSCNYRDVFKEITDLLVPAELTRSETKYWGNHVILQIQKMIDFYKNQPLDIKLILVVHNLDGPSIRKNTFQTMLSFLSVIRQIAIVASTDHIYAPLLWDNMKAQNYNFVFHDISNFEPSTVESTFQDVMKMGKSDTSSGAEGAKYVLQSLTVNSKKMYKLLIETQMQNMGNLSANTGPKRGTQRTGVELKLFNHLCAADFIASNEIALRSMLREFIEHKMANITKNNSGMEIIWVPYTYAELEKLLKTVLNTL

T6: Orc2 (subunit of the purified His-ORC complex) (budding yeast) (UniProt P32833)
T6 sequence: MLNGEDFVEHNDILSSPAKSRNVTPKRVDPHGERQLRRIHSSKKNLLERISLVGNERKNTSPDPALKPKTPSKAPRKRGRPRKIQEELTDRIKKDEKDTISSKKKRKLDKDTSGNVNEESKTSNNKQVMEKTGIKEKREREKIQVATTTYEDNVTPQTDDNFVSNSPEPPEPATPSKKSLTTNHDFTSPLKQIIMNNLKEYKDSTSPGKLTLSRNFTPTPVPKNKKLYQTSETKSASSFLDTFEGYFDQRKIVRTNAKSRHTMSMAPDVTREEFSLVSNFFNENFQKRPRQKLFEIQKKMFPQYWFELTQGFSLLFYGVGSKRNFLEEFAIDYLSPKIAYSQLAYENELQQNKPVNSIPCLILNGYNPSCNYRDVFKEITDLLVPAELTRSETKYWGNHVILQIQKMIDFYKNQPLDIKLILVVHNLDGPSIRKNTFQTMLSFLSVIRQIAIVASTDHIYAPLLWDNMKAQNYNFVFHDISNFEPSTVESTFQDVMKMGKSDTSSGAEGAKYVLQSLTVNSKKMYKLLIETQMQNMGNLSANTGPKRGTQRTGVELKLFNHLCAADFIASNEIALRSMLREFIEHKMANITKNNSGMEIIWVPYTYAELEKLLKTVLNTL


What was measured:
[1] = target: T1, His-Orc1 (subunit of the purified His-ORC complex) (budding yeast); test: co-purification
[2] = target: T2, Orc3 (subunit of the purified His-ORC complex) (budding yeast); test: cross-linking
[3] = target: T3, Orc1-TAP (budding yeast); test: co-IP
[4] = target: T4, Orc5-TAP (budding yeast); test: co-IP
[5] = target: T5, Orc2-TAP (budding yeast); test: co-IP
[6] = target: T6, Orc2 (subunit of the purified His-ORC complex) (budding yeast); test: cross-linking

binding [1] | binding [2] | binding [3] | binding [4] | binding [5] | binding [6] | Binder
binds | binds |  |  |  |  | Orc5 (subunit of the purified His-ORC complex) (natural protein, budding yeast) MNVTTPEVAFREYQTNCLASYISADPDITPSNLILQGYSGTGKTYTLKKYFNANPNLHAVWLEPVELVSWKPLLQAIARTVQYKLKTLYPNIPTTDYDPLQVEEPFLLVKTLHNIFVQYESLQEKTCLFLILDGFDSLQDLDAALFNKYIKLNELLPKDSKINIKFIYTMLETSFLQRYSTHCIPTVMFPRYNVDEVSTILVMSRCGELMEDSCLRKRIIEEQITDCTDDQFQNVAANFIHLIVQAFHSYTGNDIFALNDLIDFKWPKYVSRITKENIFEPLALYKSAIKLFLSTDDNLSENGQGESAITTNRDDLENSQTYDLSIISKYLLIASYICSYLEPRYDASIFSRKTRIIQGRAAYGRRKKKEVNPRYLQPSLFAIERLLAIFQAIFPIQGKAESGSLSALREESLMKANIEVFQNLSELHTLKLIATTMNKNIDYLSPKVRWKVNVPWEIIKEISESVHFNISDYFSDIHE
 |  | binds | binds | binds |  | Pch2-E399Q (protein, UniProt P38126 1-564) MSYIVDLQVRGSSLRVIKCMFREDEQISSLHSGSDSKQNSNKKLGEFLNLLKAVVKRKLESFPKDRLKTSIITGQELMREGQGSIEIKDPPTEAQQHLIRSLAKVLLHQFSSINGKVNTVNEGQDNLFLSLFVKKISIEQQSTSHVSIKLNFHEKINLGQHIDSILDSEETNESDTYHMGSVDEFIIYPFCCLEEQDELKNGSILSTEFDKIDLELDEDDGFEGETLNNCINSVGNFDIPLSKQTLNLVNISYLPGTTFEGQWESLYFGNNIKERLYSYATISLKIARFKQTGDSNQEDITTLITNNKLLLVHGPPGTGKTTLCKALCQKLSVRREFSDGSDTIDTNYKGIIIELSCARIFSKWFGESSKNISIVFKDIEELLKVNEGRGIFICLLIDQVEAIASSRTNLSSRNESTDGIRVVNTLLTQLDRLKKYHNFLALATSNLLDSLDDAFVDRADGVFYVGNPTAEGILHILKVCIEEMITSGIILFHARSTGVKFFNKYQDILRKIAIKCSTVDISGRTIRKLPLMCLSEYFRTFPVDDDEFVLALAMSARKLSAARK
binds |  |  |  |  | binds | Orc3 (subunit of the purified His-ORC complex) (protein, UniProt P54790 1-616) MSDLNQSKKMNVSEFADAQRSHYTVYPSLPQSNKNDKHIPFVKLLSGKESEVNVEKRWELYHQLHSHFHDQVDHIIDNIEADLKAEISDLLYSETTQKRRCFNTIFLLGSDSTTKIELKDESSRYNVLIELTPKESPNVRMMLRRSMYKLYSAADAEEHPTIKYEDINDEDGDFTEQNNDVSYDLSLVENFKRLFGKDLAMVFNFKDVDSINFNTLDNFIILLKSAFKYDHVKISLIFNINTNLSNIEKNLRQSTIRLLKRNYHKLDVSSNKGFKYGNQIFQSFLDTVDGKLNLSDRFVEFILSKMANNTNHNLQLLTKMLDYSLMSYFFQNAFSVFIDPVNVDFLNDDYLKILSRCPTFMFFVEGLIKQHAPADEILSLLTNKNRGLEEFFVEFLVRENPINGHAKFVARFLEEELNITNFNLIELYHNLLIGKLDSYLDRWSACKEYKDRLHFEPIDTIFQELFTLDNRSGLLTQSIFPSYKSNIEDNLLSWEQVLPSLDKENYDTLSGDLDKIMAPVLGQLFKLYREANMTINIYDFYIAFRETLPKEEILNFIRKDPSNTKLLELAETPDAFDKVALILFMQAIFAFENMGLIKFQSTKSYDLVEKCVWRGI
